No constants are given. Whether binding was seen depends on the method and setting. Some entries that bind do so weakly or less than the wild type. Sequences can lack the tags named with a protein.

Test [1] deals with Ent5 full-length tagged with mEGFP (Ent5-mEGFP) (S. cerevisiae) (UniProt Q03769). Put plainly: mass photometry; Ent5-mEGFP alone, 1 µM stock, 1-2 µL added to 18 µL buffer, room temperature; low salt (5 mM NaCl); self-association into species >200 kDa beside the monomer; both purified.
Test [2] concerns the target Ent5 Δ249-287-mEGFP (S. cerevisiae) (UniProt Q03769). Described as above.

B1: Ent5 full-length tagged with mEGFP (Ent5-mEGFP) (protein, UniProt Q03769 1-411)
chain: MDSLSKKIQNLGIHDIRNAARFAQNVIVQYEPYQIDIRRATNTDAWGPTPKHLAKVLRNRYQVPLYLMTEYTLKRLVDHIATRPKNLYEKARKDYVNYGSEWRVVLKCLVVIEFLLLNVDTGDELNQIRSCLLTHKHILTREIAQFKVKFSNDGKMEIHERGIRKKGELILQYLEDSQFLKKERAKNKKNALKIRQQGESSIYNANQISTSASYDNIDDDEFDADADGFDSEMDANNVTNFNVPVETEANSNTRRRSHMEEQRRQRREILREQIKNKEQQRKRKQQQDSIPDLIDLDDSTSTTNNITIDNGNNDNKNNNINSNSDDDDDEFGDFQSETSPDTTAPKTSNSKIDDLLDWDGPKSDTDTTAAAQTSLPFAEKKQQKARPQATKDKSKGNDAFSDLFSYSKSLV
Consider B1, for which the binding entry in test [1] is “binds weakly”.

B2: Ent5 Δ249-287-mEGFP (protein, UniProt Q03769)
chain: MDSLSKKIQNLGIHDIRNAARFAQNVIVQYEPYQIDIRRATNTDAWGPTPKHLAKVLRNRYQVPLYLMTEYTLKRLVDHIATRPKNLYEKARKDYVNYGSEWRVVLKCLVVIEFLLLNVDTGDELNQIRSCLLTHKHILTREIAQFKVKFSNDGKMEIHERGIRKKGELILQYLEDSQFLKKERAKNKKNALKIRQQGESSIYNANQISTSASYDNIDDDEFDADADGFDSEMDANNVTNFNVPVETEDSIPDLIDLDDSTSTTNNITIDNGNNDNKNNNINSNSDDDDDEFGDFQSETSPDTTAPKTSNSKIDDLLDWDGPKSDTDTTAAAQTSLPFAEKKQQKARPQATKDKSKGNDAFSDLFSYSKSLV
For B2, the binding entry in test [2] is on record as “binds weakly”.

For the origin of these results see publication PMC13615978.
